Measured values from US9616033B2, “Selective metabolic approach to increasing oral bioavailability of phenylephrine and other phenolic bioactivities” (VIRGINIA COMMONWEALTH UNIVERSITY, priority 2011, dated 2017).
At least one compound was matched to its structure with a doubt left.

Test system: LS180 cells
Experiment: Inhibition of resveratrol metabolism (disappearance) in LS180 cells
Type: cell-based, human
Settings: resveratrol 25 μM, inhibitor 100 μM, 4 hours

SMILES: O=C(/C=C/C=C/c1ccc2c(c1)OCO2)N1CCCCC1 [piperine]
- inhibition of resveratrol metabolism (in words): significant inhibition
